Test results reported in PubChem BioAssay AID493014 (National Center for Advancing Translational Sciences (NCATS), 2011).
The campaign covered roughly 340,000 compounds. About 170 (0.05%) were called active. This list was built around the results that the source calls inconclusive (neither active nor inactive); the mix of calls is not that of the screen. Calls come from the whole dose curve; as a rule, active = well fitted inhibition curve with a large enough effect in the signal ratio, with a control signal flat (not every such curve was filed as active); inconclusive = small, poorly fitted or top-dose-only effect, or effect the other way, or a change in a side signal; inactive = flat fitted curve, though single readings scatter; the % refers to the signal ratio. Potencies of inconclusive entries are doubtful fits and often do not repeat.

test: qHTS Assay to Find Inhibitors of Chronic Active B-Cell Receptor Signaling; conditions: ABC-DLBCL IkBa-CBG/CBR reporter, luminescence ratio (green luciferase fused to IkBa over red control in TMD8 lymphoma cells), 4 h; activity change, negative = inhibition: at 46.1 µM (top of the series);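 for activity change, negative = inhibition: plate controls were basal doxycycline-induced cells for no effect and cells given 10 µM MG132 for full effect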
How it was run: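 Concentration-response series (up to 46 uM) were applied to TMD8 dual-reporter cells for 4 h at 37C with doxycycline. Green/red ratio, after filter-overlap correction, defined %Activity; red signal alone was normalised to basal cells and zero luminescence.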
Potency is the fitted concentration of half-maximal effect.

Row | SMILES | Potency | activity change, negative = inhibition
1 | COc1ccc(S(=O)(=O)Nc2cc(C)ccc2OC)cc1C | inconclusive: 18.4 µM [falling, partial curve, poor fit] | –
2 | COc1ccc(CC(=O)Nc2nc(-c3ccc(F)c(F)c3)cs2)cc1 | – | inconclusive: 0.845%
3 | CCOC(=O)C1CCCN(C(=O)CNS(=O)(=O)c2ccc(Br)s2)C1 (stereo not drawn) | – | inactive: 4.02%
4 | O=C(O)CCc1ncc(C(F)(F)F)cc1Cl | – | inactive: 0.68%
5 | Cc1c(Cl)cccc1NC(=O)Nc1cc(C(C)(C)C)nn1C | inconclusive: 22.4 µM [falling, single point] | –
6 | O=C1C(=O)N(c2cccc(Cl)c2)C(c2ccccc2[N+](=O)[O-])/C1=C(\O)c1ccccc1 (stereo not drawn) | inconclusive: 11.2 µM [falling, partial curve] | –
7 | O=C(COc1ccc(S(=O)(=O)NC2CCCCC2)cc1)NC1CCCCC1 | – | inactive: -18.4%
8 | Cc1csc(NC(=O)C(C)Oc2ccc(Br)cc2)n1 (stereo not drawn) | – | inactive: 8.96%
9 | COc1ccccc1NC(=O)Nc1ccc2c(c1)OCCO2 | – | inconclusive: -18.1%
10 | COc1ccc(-c2nc3ccccn3c2/N=C/c2ccc(OC)c(OC)c2)cc1O | – | inconclusive: -9.63%
11 | COc1cc(NC(=S)NCc2ccco2)cc(OC)c1OC | – | inconclusive: -5.75%
12 | Cc1sc2ncn(CC(=O)OC(C)C)c(=O)c2c1C | – | inconclusive: 17.4%
13 | CC(C)=CCCC1(C)C=Cc2c(c(C)cc3c2[nH]c2cc(O)ccc23)O1 (stereo not drawn) | – | inconclusive: 12.2%
14 | Cc1ccccc1C(=O)N1CCC(C(=O)Nc2nc3ccc(F)cc3s2)CC1 | – | inconclusive: -6.94%
15 | COc1cc(O)c(C(CC(=O)N2CCOCC2)c2ccc(N(C)C)cc2)c(OC)c1 (stereo not drawn) | – | inactive: 1.26%
16 | Cc1ccc(S(=O)(=O)N2CCN(C(=O)Cn3c(=O)cnc4ccccc43)CC2)c(C)c1 | – | inactive: -0.195%
17 | CCOc1ccc(OCCCC(=O)NCCc2ccc(OC)cc2)cc1 | – | inactive: 2.87%
18 | Cc1ccc2nc(=O)c(NNc3ccccc3)cnc2c1 | inconclusive: 5.8 µM [falling, single point] | –
19 | C/C(=N\NC(=O)c1ccccc1F)c1cccc(NC(=O)c2ccccc2)c1 | – | inconclusive: -15.3%
20 | N#C/C(=C/c1ccc(F)cc1)C(N)=S | – | inconclusive: -2.5%
21 | Nc1nnc(-c2ccc(F)cc2)s1 | inconclusive: 3.55 µM [falling, partial curve, poor fit] | –

Row | SMILES | Potency | activity change, negative = inhibition
22 | CC(CNC(=O)Cn1ccc(N)nc1=O)c1ccccc1 (stereo not drawn) | – | inactive: 2.69%
23 | COc1ccc(NC(=O)CN(C)S(=O)(=O)c2cccc3cccnc23)cc1 | inconclusive: 29.1 µM [falling, single point] | –
24 | O=c1[nH]c(C2CCN(S(=O)(=O)Cc3ccccc3)CC2)nc2c1nnn2Cc1ccccc1 | – | inconclusive: -57.9%
25 | CC(C)Oc1ccc(-c2nc(NCC3CCCO3)c3ccccc3n2)cc1 (stereo not drawn) | – | inconclusive: -5.58%
26 | COc1ccc(S(=O)(=O)Nc2ccc3c(c2)C(=O)N([C@H](C)CO)C[C@H](C)[C@@H](CN(C)S(=O)(=O)c2ccccc2)O3)cc1 | – | inconclusive: -0.861%
27 | Cc1ccc(C)c(N)c1 | – | inactive: -3.24%
28 | Cc1ccc(-c2[nH]ncc2/C=C(\C#N)C(=O)NC2CCCCC2)cc1 | – | inconclusive: -1.45%
29 | O=C1CCCN2N=C(SCC(=O)Nc3cccc(F)c3)SC2=N1 | – | inactive: 6.65%
30 | COc1ccc(/C=C(\CC(=O)O)c2nc3ccccc3s2)cc1O | inconclusive: 17.8 µM [falling, partial curve] | –
31 | COCCCC1CCN(C(=O)CCc2nnc(CCCCc3ccccc3)o2)CC1 | inconclusive: 25.1 µM [falling, partial curve, poor fit] | –
32 | COc1ccc(/C=N/NC(=O)c2ccc(O)cc2O)cc1CSc1ccccn1 | – | inconclusive: -4.28%
33 | O=C(c1ccc(N2CCN(C3CC(=O)N(Cc4cccs4)C3=O)CC2)cc1)c1cccnc1 (stereo not drawn) | – | inconclusive: -9.42%
34 | COc1ccc(CCNS(=O)(=O)c2c(C)[nH]c(C)c2C(=O)N2CCCCC2)cc1OC | – | inactive: 4.9%
35 | CC(C)c1cc(CN2CCOCC2)cc(C(C)C)c1O | – | inconclusive: 16.1%
36 | COc1cc(CC2COC(c3ccc(O)c(OC)c3)C2COC(C)=O)ccc1O (stereo not drawn) | – | inconclusive: -12.1%
37 | Cc1cc(O)c(C(C)C)cc1N=Nc1ccccc1C(=O)O | – | inconclusive: 0.0302%
38 | O=C(Cn1nnc2ccccc21)NNC(=O)c1ccccc1 | – | inactive: -15.3%
39 | CCN(CC)S(=O)(=O)c1ccc(OCC(=O)NC(=O)Cc2ccccc2)c([N+](=O)[O-])c1 | – | inconclusive: -0.177%
40 | NS(=O)(=O)c1ccc(CCNC(=O)CSc2nc3ccsc3c(=O)n2CCCCCC(=O)O)cc1 | – | inconclusive: 17.1%
41 | COC(=O)CC1(C(=O)OC)Oc2ccc(Br)cc2C(=O)N1c1cc(Cl)c(Cl)cc1Cl (stereo not drawn) | inconclusive: 3.16 µM [rising, partial curve] | –
42 | CCCn1nnnc1NC(=O)COc1ccc(Cl)cc1C | inconclusive: 5.01 µM [falling, partial curve, poor fit] | –

Row | SMILES | Potency | activity change, negative = inhibition
43 | O=C(NC(=S)N1CCN(C/C=C/c2ccccc2)CC1)c1cccnc1 | – | inconclusive: -23%
44 | O=C(NCCCc1ccccc1)c1cnc2n(c1=O)CCS2 | – | inactive: -1.93%
45 | Cn1c(COc2ccccc2)nc2ccccc21 | – | inconclusive: 3.72%
46 | Cc1ccc(C)c(NC(=O)CCc2ccc(S(=O)(=O)NC3CCCCC3)cc2)c1 | – | inconclusive: -1.43%
47 | Nc1ncnc2c1ncn2[C@@H]1O[C@H](CNCc2ccccc2OCC(=O)N2CCCCC2)[C@@H](O)[C@H]1O | – | inactive: 0.0905%
48 | Cc1cc(C)c2cc(C(=O)Nc3ccccc3)[nH]c2c1 | inconclusive: 22.4 µM [falling, partial curve] | –
49 | OCCN1CCN(CC(O)COc2ccc(Cl)cc2)CC1 (stereo not drawn) | – | inconclusive: 13.6%
50 | CCCCCCCCCCCCOC(=O)C[N+](C)(C)C | – | inconclusive: 2.1%
51 | COc1ccc(CCNC(=O)c2cccc(NC(=O)CC3SC(N4CCCCC4)=NC3=O)c2)cc1OC (stereo not drawn) | inconclusive: 15.8 µM [falling, partial curve] | –
52 | Cc1ccsc1/C=N/NC(=O)CNC(=O)c1cccc([N+](=O)[O-])c1C | – | inactive: -0.0273%
53 | COc1ccc(NC(=O)N(CCN2CCCC2)Cc2cc3cc(OC)c(OC)cc3[nH]c2=O)cc1 | – | inconclusive: -4.44%
54 | Cc1c(Nc2scc(-c3ccccc3)[n+]2-c2ccccc2)c(=O)n(-c2ccccc2)n1C | – | inconclusive: 17.5%
55 | CCc1cccc(CC)c1NC(=O)COC(=O)C1(C)CC1(Cl)Cl (stereo not drawn) | – | inconclusive: 0.843%
56 | CCC1(C)Cc2c(sc(NC(=S)NC(=O)c3ccccc3)c2C#N)CO1 (stereo not drawn) | – | inactive: 3.72%
57 | O=C(NC(=O)N1CCOCC1)c1ccccc1 | – | inconclusive: 4.94%
58 | Cc1ccccc1C(=O)NC(=S)Nc1ncccn1 | – | inconclusive: -18.6%
59 | O=C(N/N=C/CCc1ccccc1)c1ccccc1 | inconclusive: 12.6 µM [falling, partial curve, poor fit] | –
60 | CCCC(=O)N=c1sc2c(OC)ccc(OC)c2n1C | – | inconclusive: -4.38%
61 | Cc1c(C(=O)OCC(=O)Nc2ccc(S(N)(=O)=O)cc2)oc2c1ccc1ccccc12 | inconclusive: 7.08 µM [rising, partial curve, poor fit] | –
62 | O=C(Nc1cccc(S(=O)(=O)N2CCOCC2)c1)c1ccc2ccccc2n1 | – | inconclusive: -2.12%
63 | CCC(CO)Oc1cc(NCc2ccccc2)c2ncn(C(C)C)c2c1 (stereo not drawn) | – | inconclusive: 0.529%

Row | SMILES | Potency | activity change, negative = inhibition
64 | CCOc1ccc(N2C(=O)CS/C2=N/NC(=O)COc2ccc3ccccc3c2)cc1 | – | inconclusive: 18.5%
65 | Cc1ccc2sc(NC(=O)c3cccc(N4C(=O)CCC4=O)c3)nc2c1C | – | inconclusive: 0.716%
66 | COc1ccccc1NC(=O)c1c(N=Cc2cccc([N+](=O)[O-])c2)cnn1C | – | inconclusive: -0.488%
67 | COc1ccc(NS(=O)(=O)c2cc(NC(=O)CCNC(C)=O)ccc2N2CCCCC2)cc1 | – | inconclusive: 9.43%
68 | CCC(Sc1nc2cc3c(cc2c(=O)n1CCCC(=O)NCc1ccc2c(c1)OCO2)OCO3)C(=O)NCCCOC (stereo not drawn) | – | inactive: -11.1%
69 | COc1ccc2c(c1)[C@H]1[C@H](CO2)[C@H](c2ccccc2)[C@]2(C)C(=O)Nc3ccccc3C(=O)N12 | – | inconclusive: 14.6%
70 | Cc1ccc(Oc2ncc(CN3CCOCC3)s2)cc1 | – | inconclusive: 13.5%
71 | COC(=O)c1cc(Br)ccc1-c1ccc(/C=N/n2nnnc2N)o1 | – | inconclusive: 0.664%
72 | CC1=C(C(=O)Nc2ccccn2)C(c2ccc(F)cc2)n2ncnc2N1 (stereo not drawn) | – | inconclusive: 8.26%
73 | CCOc1ccc(C(=O)NC(=S)Nc2ccc(N3CCC(C)CC3)cc2)cc1[N+](=O)[O-] | – | inconclusive: 10.4%
74 | CC(=O)N/C(N)=N/c1nc2cc([N+](=O)[O-])ccc2o1 | – | inconclusive: 4.38%
75 | O=C(c1n[nH]c(=O)c2ccccc12)N1CCOCC1 | – | inactive: -0.734%
76 | N#Cc1nc(-c2ccco2)oc1NCCCN1CCOCC1 | – | inactive: 4.43%
77 | Cn1ncc2c(Nc3ccccc3Cl)nc(Nc3ccccc3Cl)nc21 | – | inactive: 27.6%
78 | CCOC(=O)c1ccc(NC(=O)CN(c2ccc(C)cc2)S(=O)(=O)c2c(C)nn(C)c2C)cc1 | – | inactive: -17.9%
79 | CC12CCC(=O)N1C(C(=O)OCC(=O)Nc1ccc(C(F)(F)F)cc1)CS2 (stereo not drawn) | – | inactive: 1.41%
80 | COc1cccc(NC(=O)Nc2ccc3c(c2)nc(C)n3C)c1 | inconclusive: 4.47 µM [falling, full curve, poor fit] | –
81 | O=C(CCc1nc(-c2ccccc2)no1)NCc1cccnc1 | – | inconclusive: 26.8%
82 | Cc1cc(=O)[nH]c(N/N=C/c2ccc3c(c2)OCCO3)n1 | inconclusive: 14.1 µM [falling, partial curve, poor fit] | –
83 | O=C1c2[nH]nc(-c3ccccc3O)c2C(c2ccc(F)cc2)N1CC1CCCO1 (stereo not drawn) | – | inconclusive: 12.3%

4 successive records from above, quoted:
Row | SMILES | Potency | activity change, negative = inhibition
74 | CC(=O)N/C(N)=N/c1nc2cc([N+](=O)[O-])ccc2o1 | – | inconclusive: 4.38%
75 | O=C(c1n[nH]c(=O)c2ccccc12)N1CCOCC1 | – | inactive: -0.734%
76 | N#Cc1nc(-c2ccco2)oc1NCCCN1CCOCC1 | – | inactive: 4.43%
77 | Cn1ncc2c(Nc3ccccc3Cl)nc(Nc3ccccc3Cl)nc21 | – | inactive: 27.6%
